Measurements as given in PMC12002642.
Results are given in words; binding and its absence hold for the method and conditions named. In cells and extracts the contact can be indirect. Here binding means that the protein was enriched with, or labelled near, the bait; the list need not be complete.

B1: Red5 (ZC3H3 ortholog), endogenous (protein, UniProt B6JVP1 1-380)
chain: MAGTNSEEQKLLEQIASLAGAINKYKYSQEQIHHQSAQKPDGANSTNWRKRKLSHWSTSRNQTLVNNPPPSPSIKGAAAKTQDDVSSMSEDATEASMFVARKDRHMQLIHKSIYEQDAQARQASMETARAKLNEKRKAVAEKKTQQKLTDPNNHLLTIQELPFIINDKDPKFIECMDTLAQLPKHIYHEGRAYVLMNRSMYKFVGTSPYSVYCRYYNMVGYCAKGGKCMYVHDPAHKYVCPRFLSGNCPNGEQCSLSHDRDEKRTPACRYFLKGKCTNPVCRYAHVHYNESVPVCPDFSEYGMCENGLHCKMKHILKCTEYALKGACHNAKCRLYHPPKELESTEKKEGAVSAEKMQGEQKQDSESSSTASGATPIFISL
B2: Rmn1 (RBM26·27 ortholog), endogenous (protein, UniProt B6K5G4 1-589)
chain: MALLRHESAEEEVRQLCYSQLEDFLRQETIPFVDKVFDVLKERSYLEKEMKSPKGHLSTAATIPVSAPLAEKGPVAASNERPNAANAQANAPPFGGHQHPTLPAGFMPNPSGPPFPFPLPMLNPAAAAAAAAAAAAAAASGEFSPFQGSNNSSQASPMDIASPASPFPPPFQPRGSRRRCRDYETKGFCLRGDKCMFEHSSQPVRVSSPNHQNFAYDHRAPSRPIQHYSPRYIKGPSRDPSSTILQMRNVPPEYLDEQRIREFFEKFGPLEKVELHQTQSYAILHFKDHASAEAAWGSPEPIFNNRFIKVFWQATNTPSRGPPGQRRMTSSRVSHYTPYSRPQPRGEVVQEEDPVVTAQSPDFLKRVEEKQRAFEERRKKLEENKRKLEEINRKKQELALRQLKEQQVLMEKLKSADPASQSKVDILKTQLALLKAEADSLGIQVGSQNSPTPSTTTATSKPTVSYSHHPNASVGYSHAPARGRGGRFSFASMSLDNRPRRIQVNNVSPDKNELLLQHLLSVGEYESVTEPEPNTRMVNFRSRRAAEQFYDNVQTIDGLRDISLQWIPNGVAATQPSENQTDATMGNES
B3: Dri1, endogenous (protein, UniProt B6K2B3 1-686)
chain: MALPEFVGDLVVLHFETNLDDHGLSIGRAPCEVREICWVILDGKTLEKQHCGSCAIRDESIKTGVYTSVESFREAVYTLDDVLQRLLSFENRNFTFVVMNARELRVLLPKQAKDHGIVLPSYLRYPRLFDLSNEYAKWQVRSGVVPPYTITLSHIFGKLDVDSLPPLADSASVLGISADDLAYVTKGLTQCWRLANAVTLLLMRASRDSQSLSPAGTPTKSGTSSSLAVLTRPIDCRADLRVFLAERSAVVHIAGLANDTTQAELENWFVNHGLRSVALWTLKTPDQYKSTGTGYVVFSSHKDATDALNLNGSCFGDRMLEITPSSPRTLERASDILTSFPSSKNRPRPGDWNCPMCGFSNFQRRTSCFRCSFPGSSNLSQQNLSGSLGHDQFLVGSYGNSPHSNGGVANAGYHVGSFHSASHTSLQPSSMPNGVSGSGVHSSNSRNSFGGNVPFRAGDWKCGSGGCGYHNFAKNVCCLRCGASRATASVVADSSGVAINPATPHGSFSNFSSSPFSGGSSQNNFLLSSNVYPYSQMSLNQLMKSGGGHSASSFGVQTSRFEEYSSRMKESPARAYNTSDQGDWLCECGFTNFRRRTNCLRCNAPHATSHPNMPASLPSNFGSFFGNGQHPFSAREDSNPNFMGGLSKHLAGISLKEEPAFQVSPSVFPSQKRASVAELSANGRLL
B4: Ppn1 (PPP1R10 ortholog, CPSF component), endogenous (protein, UniProt B6K4E4 1-783)
chain: MNGARDFSGLNDRNKPLQNDGNVDNRNVFAADYNNHRMPEMTLPLPSNYDSRIMGFYPAYNQNQAYMQPHAGFANQMHTEYGYFQPHVNNLLSNDASMHHTGQYLQPSVMEVDYRQQPPRQSYPYQPPTISNFQHASLPFYSSNTNAAEYANAARSLNPIQNPVTLPPLTHKEYPPSYYQPYVQNNMSAEETQNVLNRQPPQMHAGTPMLVETTPSYASSPNMQPAVLNQTVADVPSVAPSSSQKLPLKTPVKPKAPLSPAERLRHELNECLDPFNTSRAPRDCAAVLVNFMGSIETDEQKLIFLEITRDKGLDTIYNELVDGSRRIFLPKLRNWFVSAIRSKHDKLTHVILQVLTRLPLNPEKLAEVKFGKAILLVGKKSTNSIIRQYAENLSGIAEKSLLLEQRKDTKAAPVKPETTKTAASATSRPSHKSISQKPPVTTTKKVTSVSNTSFFKNLSSAAKQSAASGSKAPMASSASAKSSTPNTPLSAIMAGLNRGNQDSQTASSTSSSTKVGSDLKSLTEQITKGKEELPSFRKRSAKSDSTTGKPTKVSKTTSESTVKRKKKSVSWRPDNDLVQVRIIESLEDDKDLAKGVHHHYGSARDLDRHEARVAFGAKVEDDVEEEQTWYEPVVITFVIKDELHTRGFKTGAEKLNPTPESQWETERESSTKPSTTSEKVLSESFIRESSSPSTPAEIPLPAANEKETPQKDTSRSPSSPPRPVETRKDVNIPSQQPYSAVSAQHVSSILAALTNASAQAPSNRADDKNNASFLAQLMSTVNR

Biological target: T1, Pab2-TurboID (S. japonicus) (UniProt B6K794)
T1 sequence: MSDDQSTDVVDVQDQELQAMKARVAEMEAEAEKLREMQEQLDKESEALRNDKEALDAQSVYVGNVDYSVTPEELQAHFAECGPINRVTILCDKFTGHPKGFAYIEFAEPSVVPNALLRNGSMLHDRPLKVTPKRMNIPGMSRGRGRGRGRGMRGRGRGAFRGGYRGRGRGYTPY
Experiment: proximity labelling; TurboID: S. japonicus strain expressing Pab2-TurboID against parental strains; lysis in RIPA buffer, biotinylated proteins purified on streptavidin magnetic beads, LC-MS/MS

| Binder | binding |
| --- | --- |
| B1 | binds |
| B2 | binds |
| B3 | binds |
| B4 | binds |
